The source of these data is US9943496B2, “Dietary supplement based on ethyl ferulate” (LABORATORIOS MINKAB, S. A. DE C. V., priority 2015, dated 2018).

The subject of one data set is heifers. As to the kind of experiment: Sacrifice and evaluation of carcass quality of supplemented heifers. Particulars: Longissimus dorsi. The class given is in vivo, Bos taurus. Here is the method: Once the productive performance test was finished, the animals were sacrificed following the current regulations.
The pH was measured at 45 min and 24 h postmortem in the Longissimus dorsi (LD) at the 12th intercostal space using a portable digital potentiometer brand HANNA HI 99163 (Mettler-Toledo Process Analytical Inc., Wilmington, Mass., USA). The weight of the hot carcass was recorded, then the carcasses were cooled to 0° C. for 24 h.
At 24 h postmortem the weight of the cold carcass was measured. In at least 36 carcasses per treatment, area in cm^2 rib eye, the thickness of back fat in mm, was evaluated. The degree of marbling was also evaluated following USDA guidelines (2000): Trace (300-399), Light (400-499), Little (500-599), Modest (600-699), Moderate (700-799), Slightly abundant (800-899). These determinations were made in the LD muscle to level 12th intercostal space. Finally, the quality level of the channel according to USDA (2000) was estimated, based on the degree of marbling and carcass physiological maturity: Select − (400-449), Select + (450-499) Choice − (500-599), Choice medium (600-699), Choice + (700-799), Prime (800 or greater).
Productive performance data were analyzed by ANOVA with a design of a randomized complete block using the method of generalized linear models (GLM) using initial weight as a covariate; data carcass quality were analyzed under a completely randomized design blocks. The variance analysis (mixed models procedure), included as a fixed effect to experimental treatments and as a random effect the initial weight of animals for productive performance data and final weight for carcass quality. The study data shelf life was analyzed using analysis of variance of two ways, considering the fixed effects of treatment and storage time. When differences between treatments were detected in productive performance variables and carcass quality, comparisons of means were performed by orthogonal contrasts. The following contrasts were tested: Contrast 1: Control vs FE5+FE10; Contrast 2: FE5 vs FE10. For data quality meat in the study of oxidative stability, the comparison of means was by the Tukey test. All data were processed in the statistical package NCSS (NCSS Version 8.0, 2012).

The nature of data set [1]: Shelf life study of meat, CIE color parameters during refrigerated storage at 4° C. Further details: species or system Bos taurus. Particulars: 5 or 10 ppm/day FE; day 14 of storage at 4° C.; control lost about 9 units.

On to `CCOC(=O)/C=C/c1ccc(O)c(OC)c1` [ethyl ferulate], for which the entries for the “pH 45 min postmortem” value in the data set on heifers (FE5: 5 ppm/day) and in the data set on heifers (FE10: 10 ppm/day) were 6.71 ± 0.1 and 6.72 ± 0.1, respectively. The results for the “pH 24 h postmortem” value with heifers (FE5: 5 ppm/day) and in the data set with heifers (FE10: 10 ppm/day) were 5.56 ± 0.2 and 5.52 ± 0.2, respectively. For the same compound, the “Change of red color (Δa*) compared to baseline” value in data set [1] is recorded as “about 5.5 units”.
